Among the data in US20080026067A1, “Method for Increasing Specific Surface Area of Slightly Soluble Drug” (priority 2004, published 2008) are filtration time values, retold here.

The data set is described as follows: Comparison of the filtration time. Conditions: suction filtration, Kiriyama funnel, filter paper diameter 40 mm. How it is done:
The filtration time in process of Adjustment Example 3 and 4 was measured. However, filtration was performed by on like-for-like basis of suction filtration using Kiriyama funnel and filter paper having its diameter 40 mm. As a result, the filtration time of Adjustment Example 3 (specific surface area of the powder of compound A is 19.6 m^2/g) was about 16 minutes than the time of Adjustment Example 4 (specific surface area of the powder of compound A is 12.51 m^2/g) was about 2.8 minutes.

`Cc1ccc(-c2nc(CCOc3cccc4c3CCC=C4CCC(=O)O)c(C)o2)cc1` [Adjustment Example 3, 3-(5-{2-[5-methyl-2-(4-methylphenyl)-1,3-oxazol-4-yl]ethoxy}-3,4-dihydronaphthalen-1-yl)propanoic acid]: the filtration time result is “about 16 minutes”.

Take `Cc1ccc(-c2nc(CCOc3cccc4c3CCC=C4CCC(=O)O)c(C)o2)cc1` [Adjustment Example 4, 3-(5-{2-[5-methyl-2-(4-methylphenyl)-1,3-oxazol-4-yl]ethoxy}-3,4-dihydronaphthalen-1-yl)propanoic acid]: the filtration time result is “about 2.8 minutes”.
